According to article PMC9561260:
These are yes or no findings as the source states them, for the method shown. In cells and extracts the contact can be indirect. Here binding means that the protein was enriched with, or labelled near, the bait; the list need not be complete. Sequences can lack the tags named with a protein. Values belong to the binder of their own block, whether it stands above or below them.

Target: T1, 2× HA-3× FLAG-Eya1 (UniProt P97767)
T1 sequence: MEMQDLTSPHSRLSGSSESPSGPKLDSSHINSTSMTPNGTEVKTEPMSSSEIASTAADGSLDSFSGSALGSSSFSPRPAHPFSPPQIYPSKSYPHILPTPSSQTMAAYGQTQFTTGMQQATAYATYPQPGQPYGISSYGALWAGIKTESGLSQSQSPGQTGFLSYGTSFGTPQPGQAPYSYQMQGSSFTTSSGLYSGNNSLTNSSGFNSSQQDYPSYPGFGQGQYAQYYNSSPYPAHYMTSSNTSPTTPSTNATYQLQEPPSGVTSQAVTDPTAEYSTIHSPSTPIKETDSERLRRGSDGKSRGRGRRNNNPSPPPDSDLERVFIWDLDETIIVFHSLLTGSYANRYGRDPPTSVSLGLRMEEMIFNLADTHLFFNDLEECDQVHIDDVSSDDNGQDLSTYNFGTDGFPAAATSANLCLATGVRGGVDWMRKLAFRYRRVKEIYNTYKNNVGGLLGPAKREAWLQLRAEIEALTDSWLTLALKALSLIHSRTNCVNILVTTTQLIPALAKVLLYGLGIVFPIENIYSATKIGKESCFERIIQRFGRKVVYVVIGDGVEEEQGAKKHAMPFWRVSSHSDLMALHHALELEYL
Assay: affinity purification with mass spectrometry; tandem purification of HF-Eya1 from lysate of stable HEK293 cells: anti-FLAG M2 beads, FLAG peptide elution, then anti-HA agarose; 50 mM Tris-HCl pH 7.5, 150 mM NaCl, 0.1% Nonidet P-40, 4°C; 12 bands (B1-B12) cut from a silver-stained gel

binding: binds
B1: CRSP3 (protein, UniProt Q9ULK4 1-1368)
chain: METQLQSIFEEVVKTEVIEEAFPGMFMDTPEDEKTKLISCLGAFRQFWGGLSQESHEQCIQWIVKFIHGQHSPKRISFLYDCLAMAVETGLLPPRLVCESLINSDTLEWERTQLWALTFKLVRKIIGGVDYKGVRDLLKVILEKILTIPNTVSSAVVQQLLAAREVIAYILERNACLLPAYFAVTEIRKLYPEGKLPHWLLGNLVSDFVDTFRPTARINSICGRCSLLPVVNNSGAICNSWKLDPATLRFPLKGLLPYDKDLFEPQTALLRYVLEQPYSRDMVCNMLGLNKQHKQRCPVLEDQLVDLVVYAMERSETEEKFDDGGTSQLLWQHLSSQLIFFVLFQFASFPHMVLSLHQKLAGRGLIKGRDHLMWVLLQFISGSIQKNALADFLPVMKLFDLLYPEKEYIPVPDINKPQSTHAFAMTCIWIHLNRKAQNDNSKLQIPIPHSLRLHHEFLQQSLRNKSLQMNDYKIALLCNAYSTNSECFTLPMGALVETIYGNGIMRIPLPGTNCMASGSITPLPMNLLDSLTVHAKMSLIHSIATRVIKLAHAKSSVALAPALVETYSRLLVYMEIESLGIKGFISQLLPTVFKSHAWGILHTLLEMFSYRMHHIQPHYRVQLLSHLHTLAAVAQTNQNQLHLCVESTALRLITALGSSEVQPQFTRFLSDPKTVLSAESEELNRALILTLARATHVTDFFTGSDSIQGTWCKDILQTIMSFTPHNWASHTLSCFPGPLQAFFKQNNVPQESRFNLKKNVEEEYRKWKSMSNENDIITHFSMQGSPPLFLCLLWKMLLETDHINQIGYRVLERIGARALVAHVRTFADFLVYEFSTSAGGQQLNKCIEILNDMVWKYNIVTLDRLILCLAMRSHEGNEAQVCYFIIQLLLLKPNDFRNRVSDFVKENSPEHWLQNDWHTKHMNYHKKYPEKLYFEGLAEQVDPPVQIQSPYLPIYFGNVCLRFLPVFDIVIHRFLELLPVSKSLETLLDHLGGLYKFHDRPVTYLYNTLHYYEMHLRDRAFLKRKLVHAIIGSLKDNRPQGWCLSDTYLKCAMNAREENPWVPDDTYYCRLIGRLVDTMAGKSPGPFPNCDWRFNEFPNPAAHALHVTCVELMALAVSGKEVGNALLNVVLKSQPLVPRENITAWMNAIGLIITALPEPYWIVLHDRIVSVISSPSLTSETEWVGYPFRLFDFTACHQSYSEMSCSYTLALAHAVWHHSSIGQLSLIPKFLTEVLLPIVKTEFQLLYVYHLVGPFLQRFQQERTRCMIEIGVAFYDMLLNVDQCSTHLNYMDPICDFLYHMKYMFTGDSVKEQVEKIICNLKPALKLRLRFITHISKMEPAAVPPQAMNSGSPAPQSNQVPVSLPVTQ

binding: binds
B2: NRF (protein, UniProt O15226 1-690)
chain: MEKILQMAEGIDIGEMPSYDLVLSKPSKGQKRHLSTCDGQNPPKKQAGSKFHARPRFEPVHFVASSSKDERQEDPYGPQTKEVNEQTHFASMPRDIYQDYTQDSFSIQDGNSQYCDSSGFILTKDQPVTANMYFDSGNPAPSTTSQQANSQSTPEPSPSQTFPESVVAEKQYFIEKLTATIWKNLSNPEMTSGSDKINYTYMLTRCIQACKTNPEYIYAPLKEIPPADIPKNKKLLTDGYACEVRCQNIYLTTGYAGSKNGSRDRATELAVKLLQKRIEVRVVRRKFKHTFGEDLVVCQIGMSSYEFPPALKPPEDLVVLGKDASGQPIFNASAKHWTNFVITENANDAIGILNNSASFNKMSIEYKYEMMPNRTWRCRVFLQDHCLAEGYGTKKTSKHAAADEALKILQKTQPTYPSVKSSQCHTGSSPRGSGKKKDIKDLVVYENSSNPVCTLNDTAQFNRMTVEYVYERMTGLRWKCKVILESEVIAEAVGVKKTVKYEAAGEAVKTLKKTQPTVINNLKKGAVEDVISRNEIQGRSAEEAYKQQIKEDNIGNQLLRKMGWTGGGLGKSGEGIREPISVKEQHKREGLGLDVERVNKIAKRDIEQIIRNYARSESHTDLTFSRELTNDERKQIHQIAQKYGLKSKSHGVGHDRYLVVGRKRRKEDLLDQLKQEGQVGHYELVMPQAN

binding: binds
B3: FLYWCH1 (a zinc-finger protein) (protein, UniProt Q4VC44 1-716)
chain: MPLPEPSEQEGESVKAGQEPSPKPGTDVIPAAPRKPREFSKLVLLTASDQDEDGVGSKPQEVHCVLSLEMAGPATLASTLQILPVEEQGGVVQPALEMPEQKCSKLDAAAPQSLEFLRTPFGGRLLVLESFLYKQEKAVGDKVYWKCRQHAELGCRGRAITRGLRATVMRGHCHAPDEQGLEARRQREKLPSLALPEGLGEPQGPEGPGGRVEEPLEGVGPWQCPEEPEPTPGLVLSKPALEEEEAPRALSLLSLPPKKRSILGLGQARPLEFLRTCYGGSFLVHESFLYKREKAVGDKVYWTCRDHALHGCRSRAITQGQRVTVMRGHCHQPDMEGLEARRQQEKAVETLQAGQDGPGSQVDTLLRGVDSLLYRRGPGPLTLTRPRPRKRAKVEDQELPTQPEAPDEHQDMDADPGGPEFLKTPLGGSFLVYESFLYRREKAAGEKVYWTCRDQARMGCRSRAITQGRRVTVMRGHCHPPDLGGLEALRQREKRPNTAQRGSPGGPEFLKTPLGGSFLVYESFLYRREKAAGEKVYWTCRDQARMGCRSRAITQGRRVMVMRRHCHPPDLGGLEALRQREHFPNLAQWDSPDPLRPLEFLRTSLGGRFLVHESFLYRKEKAAGEKVYWMCRDQARLGCRSRAITQGHRIMVMRSHCHQPDLAGLEALRQRERLPTTAQQEDPEKIQVQLCFKTCSPESQQIYGDIKDVRLDGESQ

binding: binds
B4: SCYL2 (protein, UniProt Q6P3W7 1-929)
chain: MESMLNKLKSTVTKVTADVTSAVMGNPVTREFDVGRHIASGGNGLAWKIFNGTKKSTKQEVAVFVFDKKLIDKYQKFEKDQIIDSLKRGVQQLTRLRHPRLLTVQHPLEESRDCLAFCTEPVFASLANVLGNWENLPSPISPDIKDYKLYDVETKYGLLQVSEGLSFLHSSVKMVHGNITPENIILNKSGAWKIMGFDFCVSSTNPSEQEPKFPCKEWDPNLPSLCLPNPEYLAPEYILSVSCETASDMYSLGTVMYAVFNKGKPIFEVNKQDIYKSFSRQLDQLSRLGSSSLTNIPEEVREHVKLLLNVTPTVRPDADQMTKIPFFDDVGAVTLQYFDTLFQRDNLQKSQFFKGLPKVLPKLPKRVIVQRILPCLTSEFVNPDMVPFVLPNVLLIAEECTKEEYVKLILPELGPVFKQQEPIQILLIFLQKMDLLLTKTPPDEIKNSVLPMVYRALEAPSIQIQELCLNIIPTFANLIDYPSMKNALIPRIKNACLQTSSLAVRVNSLVCLGKILEYLDKWFVLDDILPFLQQIPSKEPAVLMGILGIYKCTFTHKKLGITKEQLAGKVLPHLIPLSIENNLNLNQFNSFISVIKEMLNRLESEHKTKLEQLHIMQEQQKSLDIGNQMNVSEEMKVTNIGNQQIDKVFNNIGADLLTGSESENKEDGLQNKHKRASLTLEEKQKLAKEQEQAQKLKSQQPLKPQVHTPVATVKQTKDLTDTLMDNMSSLTSLSVSTPKSSASSTFTSVPSMGIGMMFSTPTDNTKRNLTNGLNANMGFQTSGFNMPVNTNQNFYSSPSTVGVTKMTLGTPPTLPNFNALSVPPAGAKQTQQRPTDMSALNNLFGPQKPKVSMNQLSQQKPNQWLNQFVPPQGSPTMGSSVMGTQMNVIGQSAFGMQGNPFFNPQNFAQPPTTMTNSSSASNDLKDLFG

binding: binds
B5: MYBBP1A (proto-oncogene MYB-binding protein) (protein, UniProt Q9BQG0 1-1328)
chain: MESRDPAQPMSPGEATQSGARPADRYGLLKHSREFLDFFWDIAKPEQETRLAATEKLLEYLRGRPKGSEMKYALKRLITGLGVGRETARPCYSLALAQLLQSFEDLPLCSILQQIQEKYDLHQVKKAMLRPALFANLFGVLALFQSGRLVKDQEALMKSVKLLQALAQYQNHLQEQPRKALVDILSEVSKATLQEILPEVLKADLNIILSSPEQLELFLLAQQKVPSKLKKLVGSVNLFSDENVPRLVNVLKMAASSVKKDRKLPAIALDLLRLALKEDKFPRFWKEVVEQGLLKMQFWPASYLCFRLLGAALPLLTKEQLHLVMQGDVIRHYGEHVCTAKLPKQFKFAPEMDDYVGTFLEGCQDDPERQLAVLVAFSSVTNQGLPVTPTFWRVVRFLSPPALQGYVAWLRAMFLQPDLDSLVDFSTNNQKKAQDSSLHMPERAVFRLRKWIIFRLVSIVDSLHLEMEEALTEQVARFCLFHSFFVTKKPTSQIPETKHPFSFPLENQAREAVSSAFFSLLQTLSTQFKQAPGQTQGGQPWTYHLVQFADLLLNHSHNVTTVTPFTAQQRQAWDRMLQTLKELEAHSAEARAAAFQHLLLLVGIHLLKSPAESCDLLGDIQTCIRKSLGEKPRRSRTKTIDPQEPPWVEVLVEILLALLAQPSHLMRQVARSVFGHICSHLTPRALQLILDVLNPETSEDENDRVVVTDDSDERRLKGAEDKSEEGEDNRSSESEEESEGEESEEEERDGDVDQGFREQLMTVLQAGKALGGEDSENEEELGDEAMMALDQSLASLFAEQKLRIQARRDEKNKLQKEKALRRDFQIRVLDLVEVLVTKQPENALVLELLEPLLSIIRRSLRSSSSKQEQDLLHKTARIFTHHLCRARRYCHDLGERAGALHAQVERLVQQAGRQPDSPTALYHFNASLYLLRVLKGNTAEGCVHETQEKQKAGTDPSHMPTGPQAASCLDLNLVTRVYSTALSSFLTKRNSPLTVPMFLSLFSRHPVLCQSLLPILVQHITGPVRPRHQACLLLQKTLSMREVRSCFEDPEWKQLMGQVLAKVTENLRVLGEAQTKAQHQQALSSLELLNVLFRTCKHEKLTLDLTVLLGVLQGQQQSLQQGAHSTGSSRLHDLYWQAMKTLGVQRPKLEKKDAKEIPSATQSPISKKRKKKGFLPETKKRKKRKSEDGTPAEDGTPAATGGSQPPSMGRKKRNRTKAKVPAQANGTPTTKSPAPGAPTRSPSTPAKSPKLQKKNQKPSQVNGAPGSPTEPAGQKQHQKALPKKGVLGKSPLSALARKKARLSLVIRSPSLLQSGAKKKAQVRKAGKP
